Earlier results in patent US20060229261A1 (priority 2005, published 2006).
At least one compound was matched to its structure with a doubt left.

Tested on: elderly patients with diabetes mellitus
Conditions: cited from earlier work

Compound: C[C@H]1O[C@H](O[C@H]2[C@H](O)[C@@H](O)[C@@H](O[C@H]3[C@H](O)[C@@H](O)C(O)O[C@@H]3CO)O[C@@H]2CO)[C@H](O)[C@@H](O)[C@@H]1N[C@H]1C=C(CO)[C@@H](O)[C@H](O)[C@H]1O (stereo partly shown) [acarbose]
- colonic transit time: reduced the prolonged colonic transit time
